Measurements taken from PubChem BioAssay AID493014 (National Center for Advancing Translational Sciences (NCATS), 2011).
About 170 (0.05%) of roughly 340,000 compounds were called active. The inconclusive results got no clear call from the source; some entries with a clear call stand among them for comparison. Calls follow the shape of the dose curve; as a rule, active = well fitted inhibition curve with a large enough effect in the signal ratio, with a control signal flat (not every such curve was filed as active); inconclusive = small, poorly fitted or top-dose-only effect, or effect the other way, or a change in a side signal; inactive = flat fitted curve, though single readings scatter; the % refers to the signal ratio. Potencies of inconclusive entries are doubtful fits and often do not repeat.

Assay: qHTS Assay to Find Inhibitors of Chronic Active B-Cell Receptor Signaling;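 as to activity change, negative = inhibition: plate controls were basal doxycycline-induced cells for no effect and cells given 10 µM MG132 for full effect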
Conditions: ABC-DLBCL IkBa-CBG/CBR reporter, luminescence ratio (green luciferase fused to IkBa over red control in TMD8 lymphoma cells), 4 h; activity change, negative = inhibition: at 46.1 µM (top of the series)
Procedure, shortened: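 Compounds up to 46 uM were incubated four hours with TMD8 cells whose green CBG68 luciferase is fused to IkappaBalpha; red CBR luminescence normalised the signal, and concentration-effect curves were fitted to fusion, red and ratio data.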
Potency is read from the fitted curve at half-maximal effect.

SMILES | Potency | activity change, negative = inhibition
COc1ccc(OC)c(C2=NOC(C(=O)NCc3cccs3)C2)c1 (stereo unspecified) | inconclusive: 35.5 µM [falling, single point] | –
N=c1n(CCN2CCCC2)c2ccccc2n1CC(O)c1ccco1 (stereo unspecified) | – | inactive: -13.6%
CC(=O)c1cccc(N(C(=O)c2ccco2)C(C(=O)NC2CCCCC2)c2ccc(C)o2)c1 (stereo unspecified) | – | inconclusive: -12.3%
O=C(COC(=O)CCCc1nc2ccccc2s1)NC(=O)NCc1ccco1 | – | inconclusive: 3.47%
Cc1cc(Cl)ccc1OCCCC(=O)N1CCOCC1 | – | inconclusive: 0.815%
CCc1nc(Nc2ccc(OC)cc2OC)c2oc3ccccc3c2n1 | – | inconclusive: 2.81%
CCOc1ncccc1C(=O)Nc1nc(C(C)(C)C)cs1 | inconclusive: 8.91 µM [rising, partial curve, poor fit] | –
CCC1=NN2C(=N)/C(=C\c3ccc(OCCOc4ccc(NC(C)=O)cc4)cc3)C(=O)N=C2S1 | – | inconclusive: 1.65%
COc1ccc(F)c(CN2CCC(CO)(Cc3cccc(C(F)(F)F)c3)CC2)c1 | – | inactive: -20.9%
COc1ccccc1NC(=O)Nc1ccc2c(c1)CCC2 | inconclusive: 25.1 µM [falling, single point] | –
CCOC(=O)N1CCN(CCC(=O)c2ccc(Cl)cc2)CC1 | inconclusive: 23.1 µM [rising, single point] | –
Cc1cc(OC(C)C(=O)NNC(=O)Nc2ccc(F)cc2F)cc(C)c1Cl (stereo unspecified) | – | inconclusive: -19.8%
O=C1c2ccccc2C(=O)N1Nc1ccc([N+](=O)[O-])cc1[N+](=O)[O-] | – | inactive: 5.06%
COc1ccc(C(CNC(=O)c2ccc(NS(=O)(=O)c3ccc(F)cc3)cc2)N2CCOCC2)cc1 (stereo unspecified) | – | inactive: -0.334%
N#CC1=C(N)C(C#N)(C#N)C2(C(=O)Nc3ccccc32)C2CCCC=C12 (stereo unspecified) | – | inconclusive: -16%
O=C(Nc1ccc2nc3n(c(=O)c2c1)CCCC3)c1cccc(F)c1 | inconclusive: 35.5 µM [falling, single point] | –
COc1ccc(C(CNc2ncnc3sccc23)N(C)C)cc1OC (stereo unspecified) | – | inconclusive: -25.6%
C=CCn1c(=O)[nH]c2cc(C(=O)N3CC=C(c4ccccc4)CC3)ccc2c1=O | inconclusive: 14.1 µM [rising, partial curve, poor fit] | –
O=C(Cn1c(=O)oc2cc(S(=O)(=O)N3CCCCCC3)ccc21)NC1CCCCC1 | – | inconclusive: -1.12%
O=C1CN(C(=O)COC(=O)c2ccc([N+](=O)[O-])o2)c2ccccc2N1 | – | inactive: 3.07%
Cc1ccc(NC(=O)c2cc3ccccc3o2)cc1 | inconclusive: 15.8 µM [falling, single point] | –

SMILES | Potency | activity change, negative = inhibition
Cc1[nH]c(C)c(S(=O)(=O)Nc2ccc(OC(F)(F)F)cc2)c1C(=O)N1CCCCC1 | – | inactive: -22.7%
COc1ccc2oc(C(=O)NCC(c3ccco3)N(C)C)c(C)c2c1 (stereo unspecified) | inconclusive: 0.731 µM [falling, full curve, poor fit] | –
COc1ccc(-c2noc(C3CCCN(S(=O)(=O)c4cccc(Cl)c4C)C3)n2)cc1OC (stereo unspecified) | – | inconclusive: 9.59%
CSc1ccccc1NC(=O)Nc1ccccc1Cl | inconclusive: 10 µM [falling, partial curve] | –
COc1cccc2cc(C(=O)c3ccccc3)oc12 | inconclusive: 20 µM [falling, single point] | –
O=C(CCl)Nc1cc(SCC(O)CO)cc([N+](=O)[O-])c1 (stereo unspecified) | – | inconclusive: 2.35%
Cc1ccc2nc3sc(C(=O)N4CCOCC4)c(N)c3cc2c1 | – | inconclusive: 2.17%
Cc1cc(S(=O)(=O)Nc2c(NC3CCCCC3)c3ccccc3oc2=O)ccc1F | inconclusive: 7.94 µM [falling, partial curve, poor fit] | –
COc1ccc(C(=O)Nc2nc(N3C(=O)c4ccccc4C3=O)n(-c3ccccc3)n2)cc1 | inconclusive: 23.1 µM [falling, single point] | –
Cn1c(=O)cc(OCCCC(=O)Nc2cccnc2)c2ccccc21 | – | inactive: -4.64%
Cc1cccc(C)c1OCC(=O)N/N=C/c1cccn1C | inconclusive: 29.1 µM [falling, single point] | –
CC(Sc1nnc(-c2cccnc2)n1-c1ccccc1F)C(=O)N1CCCc2ccccc21 (stereo unspecified) | inconclusive: 2.31 µM [rising, full curve, poor fit] | –
Cc1ccc(-n2c(Cc3ccccc3)nnc2SCC(=O)NNC(=O)Cc2ccccc2)cc1 | – | inactive: -2.49%
CCN(CC(=O)NCc1cccs1)C(=O)c1ccc(-c2cccc(C(F)(F)F)c2)o1 | inconclusive: 7.31 µM [falling, partial curve, poor fit] | –
CCc1c(C)sc(NC(=O)c2cccs2)c1C(N)=O | – | inconclusive: -28.3%
CCc1ccc(/C=N/NC(=S)NCCc2ccccc2)cc1 | – | inconclusive: 1.46%
COc1cc(/C=N/NC(=Nc2ccc(C)cc2)c2nc3ccccc3s2)ccc1O | inconclusive: 0.82 µM [falling, partial curve] | –
Cc1ccc2oc(=S)n(C)c2c1 | – | inconclusive: 1.43%
O=C(CN1CCc2ccccc2C1)N1CCN(S(=O)(=O)c2ccccc2)CC1 | – | inconclusive: -1.34%
N#C/C(=C\c1cccs1)Sc1nc2ccccc2s1 | inconclusive: 32.6 µM [falling, single point] | –
CN(C)S(=O)(=O)c1ccc(C(=O)NNC(=O)C2COc3ccccc3O2)cc1 (stereo unspecified) | – | inconclusive: 2.77%

Single values from the list:
Cn1c(=O)cc(OCCCC(=O)Nc2cccnc2)c2ccccc21 | activity change, negative = inhibition: inactive: -4.64%
COc1ccc(C(=O)Nc2nc(N3C(=O)c4ccccc4C3=O)n(-c3ccccc3)n2)cc1 | Potency: inconclusive: 23.1 µM [falling, single point]
O=C(CN1CCc2ccccc2C1)N1CCN(S(=O)(=O)c2ccccc2)CC1 | activity change, negative = inhibition: inconclusive: -1.34%
COc1ccc2oc(C(=O)NCC(c3ccco3)N(C)C)c(C)c2c1 (stereo unspecified) | Potency: inconclusive: 0.731 µM [falling, full curve, poor fit]

Next part.

SMILES | Potency | activity change, negative = inhibition
O=C(NC1CCCCC1)c1ccc(-c2ccccc2[N+](=O)[O-])o1 | inconclusive: 17.8 µM [falling, partial curve] | –
Cc1nn(Cc2ccc(Cl)cc2)c(C)c1NC(=O)c1cc(-c2ccco2)on1 | – | inactive: 0.447%
CCC(NC(C)C)C(O)c1ccc(O)c(O)c1 (stereo unspecified) | – | inactive: -19.3%
CSc1nc(N)nc(SCC(=O)C23CC4CC(CC(C4)C2)C3)c1C#N | – | inconclusive: 14.5%
CCOc1cccc2sc(=NC(=O)CCS(=O)(=O)c3ccc(F)cc3)n(C)c12 | inconclusive: 6.51 µM [rising, partial curve, poor fit] | –
CCOC(=O)c1ccc(NC(=O)N2CCCCC2)cc1 | inconclusive: 13 µM [falling, partial curve, poor fit] | –
CCn1nc(C)cc1-c1nnc(Sc2ncc([N+](=O)[O-])s2)n1C | – | inconclusive: 11%
CN(NC(=O)Nc1ccccc1)c1cnn(C)c(=O)c1Cl | – | inactive: -5.41%
Cc1ccc(NC(=O)CCN2C(=O)NC3(CCCC3)C2=O)cc1 | – | inactive: 0.0814%
O=C(N/N=C/c1ccc(O)c2ncccc12)c1cccc(Br)c1 | – | inactive: -15.7%
COc1ccc(CCNC(=O)c2ccc3c(c2)N(Cc2cccc(Cl)c2)C(=O)c2ccccc2S3=O)cc1OC (stereo unspecified) | – | inactive: 15.9%
CCn1cc(S(=O)(=O)Nc2cc(F)ccc2C)cn1 | – | inactive: -3.98%
O=C(Nc1nc2ccc([N+](=O)[O-])cc2s1)c1ccc(S(=O)(=O)N2CCCc3ccccc32)cc1 | – | inconclusive: 2.43%
COc1ccc2cc(/C=N/O)c(Cl)nc2c1 | – | inactive: -0.704%
CC(C)NC[C@H](O)COc1ccc(CC(N)=O)cc1 | – | inactive: -10.8%
CN(CC(=O)Nc1ccc2c(c1)OCO2)S(=O)(=O)c1cccs1 | – | inactive: -3.71%
CN(C)CCCNC(=O)c1ccc(/C=N/O)nc1 | inconclusive: 35.5 µM [rising, single point] | –
CCOCCCNC(=O)C(NC(=O)c1ccc(=O)[nH]c1)c1ccc(Cl)cc1 (stereo unspecified) | – | inconclusive: -23.2%
CCCCNc1ncnc2sc3c(c12)CCN(CCC)C3 | – | inactive: 1.59%
Cc1c(C(=O)N2CC(C)OC(C)C2)sc2nc(-c3ccc(F)cc3)cn12 (stereo unspecified) | inconclusive: 6.31 µM [rising, partial curve, poor fit] | –
O=C(CSc1ccccc1)NCc1ccccc1 | – | inconclusive: 3.83%

SMILES | Potency | activity change, negative = inhibition
Brc1nnc2n1-c1ccccc1Sc1ccccc1-2 | – | inactive: -0.994%
O=C(CSc1nc2cc(Cl)ccc2s1)NCC1CCCO1 (stereo unspecified) | – | inconclusive: 9.27%
Oc1ccc(Nc2nc(-c3cccnc3)cs2)cc1 | inconclusive: 22.4 µM [cytotoxic, partial curve] | –
c1ccc(CN2CCN(C(c3ccccc3)c3ccccc3)CC2)cc1 | – | inactive: 12.1%
COc1ccc(NC(=O)CN(C)C(=O)CCSc2ccc(C)cc2)cc1 | – | inconclusive: -0.207%
COc1ccc(C2=NOC(C(=O)N(C)Cc3ccccc3)C2)cc1 (stereo unspecified) | – | inconclusive: -2.87%
CCc1cccc2c(-c3csc(=NC)n3C)c[nH]c12 | – | inconclusive: -4.29%
CCCCN(Cc1ccco1)S(=O)(=O)c1ccc(-c2ccc(=O)[nH]n2)s1 | – | inactive: 1.01%
O=C1c2ccccc2C(Nc2ccc(S(=O)(=O)N3CCCCC3)cc2)N1Cc1ccco1 (stereo unspecified) | – | inconclusive: 0.545%
CCCc1c(C(=O)OCC)sc(N)c1C#N | – | inconclusive: -15.9%
C=CCNC(=S)NNC(=O)COc1ccc(Br)cc1 | inconclusive: 29.1 µM [falling, partial curve, poor fit] | –
O=S(=O)(c1cnc(Cl)c(Br)c1)N1CCc2ccccc21 | inconclusive: 14.1 µM [falling, partial curve] | –
CC(Cc1cccs1)NC(=O)c1cccc(Cl)c1 (stereo unspecified) | – | inconclusive: 3.96%
CCCCn1c(SCc2ncc(-c3ccccc3)o2)nc2cc(S(N)(=O)=O)ccc21 | – | inconclusive: -21.6%
Cc1ccc(S(=O)(=O)Nc2ccc(NC(=O)CN3CCCCC3)cc2)cc1 | – | inconclusive: -0.302%
Cc1ccc(-c2nc3cccnc3s2)cc1NS(=O)(=O)c1cccs1 | – | inactive: -6.91%
CCOc1ccccc1NC(=O)CSc1nnc(-c2cnccn2)n1C | inconclusive: 35.5 µM [falling, single point] | –
COc1ccc(OC(=O)C(C)N2C(=O)c3ccccc3C2=O)cc1 (stereo unspecified) | – | inactive: -2.49%
